# PMC8384837
# Changes are numbered by the printed parent chain. Some of the results follow. For some of these results: At the low end of the ranking the order means little. For some of these results: The exact form of the protein is not confirmed.
# Legend:
# Details in all cases: yeast three-hybrid, YBZ-1, SC-Leu-His + 0.5 mM 3-AT, 4 days
# [1] = target: T1, PUM1 PUF domain R1-QFR R2-VFQ R7-NPG S863Q + R864F + Q867R + N899V + Y900F + S1079N + N1080P + E1083G (UniProt Q14671)
# T1 sequence: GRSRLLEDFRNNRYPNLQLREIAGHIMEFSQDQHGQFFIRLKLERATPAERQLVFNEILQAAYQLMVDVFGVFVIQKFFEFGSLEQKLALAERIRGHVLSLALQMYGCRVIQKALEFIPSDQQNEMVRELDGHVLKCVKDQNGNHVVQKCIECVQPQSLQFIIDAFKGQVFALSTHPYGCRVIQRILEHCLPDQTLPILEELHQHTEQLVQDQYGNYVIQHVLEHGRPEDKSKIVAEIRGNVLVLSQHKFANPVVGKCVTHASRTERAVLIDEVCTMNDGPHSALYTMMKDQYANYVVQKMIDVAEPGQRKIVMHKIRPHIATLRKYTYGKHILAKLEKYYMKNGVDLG
# [2] = target: T2, PUM1 PUF domain R2-VFQ R3-THE R4-TFR N899V + Y900F + C935T + R936H + Q939E + N971T + H972F + Q975R (UniProt Q14671)
# T2 sequence: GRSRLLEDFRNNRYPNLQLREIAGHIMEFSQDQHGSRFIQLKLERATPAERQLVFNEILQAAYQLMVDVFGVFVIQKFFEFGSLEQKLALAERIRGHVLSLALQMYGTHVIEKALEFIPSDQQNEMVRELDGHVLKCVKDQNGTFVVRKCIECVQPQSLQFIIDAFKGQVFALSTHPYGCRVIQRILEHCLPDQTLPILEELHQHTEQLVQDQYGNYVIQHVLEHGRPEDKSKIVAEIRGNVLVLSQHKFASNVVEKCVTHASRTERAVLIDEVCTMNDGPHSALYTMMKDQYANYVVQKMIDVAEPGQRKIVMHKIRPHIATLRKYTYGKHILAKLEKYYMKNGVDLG
# [3] = target: T3, PUM1 PUF domain R3-THE R4-TFR R7-NPG C935T + R936H + Q939E + N971T + H972F + Q975R + S1079N + N1080P + E1083G (UniProt Q14671)
# T3 sequence: T2 sequence with V72N, F73Y, S252N, N253P, E256G
# [4] = target: T4, PUM1 PUF domain R5-PHQ R6-SWD C1007P + R1008H + N1043S + Y1044W + Q1047D (UniProt Q14671)
# T4 sequence: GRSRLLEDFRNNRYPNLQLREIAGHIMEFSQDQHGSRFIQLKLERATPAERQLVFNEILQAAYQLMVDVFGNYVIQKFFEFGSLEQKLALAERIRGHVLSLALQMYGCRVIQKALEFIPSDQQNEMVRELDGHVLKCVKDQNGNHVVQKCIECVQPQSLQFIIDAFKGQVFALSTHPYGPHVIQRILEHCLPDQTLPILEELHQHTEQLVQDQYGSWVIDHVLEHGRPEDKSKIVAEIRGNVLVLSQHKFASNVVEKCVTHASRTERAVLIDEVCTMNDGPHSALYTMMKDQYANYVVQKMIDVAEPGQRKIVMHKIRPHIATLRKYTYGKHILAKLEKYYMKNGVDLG
# [5] = target: T5, PUM1 PUF domain R6-SWD R7-NPG N1043S + Y1044W + Q1047D + S1079N + N1080P + E1083G (Homo sapiens) (UniProt Q14671)
# T5 sequence: T4 sequence with P180C, H181R, S252N, N253P, E256G
# [6] = target: T6, PUM1 PUF domain R3-THE R4-TFR R7-NPG C935T + R936H + Q939E + N971T + H972F + Q975R + S1079N + N1080P + E1083G (Homo sapiens) (UniProt Q14671)
# T6 sequence: T2 sequence with V72N, F73Y, S252N, N253P, E256G
# [7] = target: T7, PUM1 PUF domain R5-PHQ R6-SWD C1007P + R1008H + N1043S + Y1044W + Q1047D (Homo sapiens) (UniProt Q14671)
# T7 sequence: T4 sequence
Sequence,binding signal (log2 enrichment (interaction score)) [1],binding signal (log2 enrichment (interaction score)) [2],binding signal (log2 enrichment (interaction score)) [3],binding signal (log2 enrichment (interaction score)) [4],binding signal (log2 enrichment (interaction score)) [5],binding signal (log2 enrichment (interaction score)) [6],binding signal (log2 enrichment (interaction score)) [7]
GGCUAGAACUAGUGGAUCCCCCGGCGCCCGGCGGCUCGAGCCCGGGUAAGUAGAAGUAGUCUGCAUGCCGCCGGGCGCCAUGCCUGCAGGUCGACUCUAGAAAACAUG,-4.86,-5.74,-2.12,< -8.51,,,
GGCUAGAACUAGUGGAUCCCCCGGCGCCCGGCGGCUCGAGCCCGGGUAAGUUGAAACAGUCUGCAUGCCGCCGGGCGCCAUGCCUGCAGGUCGACUCUAGAAAACAUG,-6.02,-6.07,< -2.76,-7.37,,,
GGCUAGAACUAGUGGAUCCCCCGGCGCCCGGCGGCUCGAGCCCGGGUAAGUUGCAGCGGUCUGCAUGCCGCCGGGCGCCAUGCCUGCAGGUCGACUCUAGAAAACAUG,-4.94,-6.33,-2.3,,-1.96,,
GGCUAGAACUAGUGGAUCCCCCGGCGCCCGGCGGCUCGAGCCCGGGUAAGUUGCAAUAGUCUGCAUGCCGCCGGGCGCCAUGCCUGCAGGUCGACUCUAGAAAACAUG,-5.49,< -6.34,,< -7.29,,,
GGCUAGAACUAGUGGAUCCCCCGGCGCCCGGCGGCUCGAGCCCGGGUAAGUUUAAACAGUCUGCAUGCCGCCGGGCGCCAUGCCUGCAGGUCGACUCUAGAAAACAUG,-5.64,-5.56,,-7.99,,,
GGCUAGAACUAGUGGAUCCCCCGGCGCCCGGCGGCUCGAGCCCGGGUAAGUUGCAGACGUCUGCAUGCCGCCGGGCGCCAUGCCUGCAGGUCGACUCUAGAAAACAUG,< -5.91,-5.37,-3.41,,,,
GGCUAGAACUAGUGGAUCCCCCGGCGCCCGGCGGCUCGAGCCCGGGUAAGUUUAAAAGGUCUGCAUGCCGCCGGGCGCCAUGCCUGCAGGUCGACUCUAGAAAACAUG,-4.5,-5.59,,-7.25,,-0.78,
GGCUAGAACUAGUGGAUCCCCCGGCGCCCGGCGGCUCGAGCCCGGGUAAGUGGAUAUAGUCUGCAUGCCGCCGGGCGCCAUGCCUGCAGGUCGACUCUAGAAAACAUG,-5.67,-5.49,,,,-1.69,-1.12
GGCUAGAACUAGUGGAUCCCCCGGCGCCCGGCGGCUCGAGCCCGGGUAAGUGUCAAAUGUCUGCAUGCCGCCGGGCGCCAUGCCUGCAGGUCGACUCUAGAAAACAUG,-5.5,-5.52,,-9.09,,,
GGCUAGAACUAGUGGAUCCCCCGGCGCCCGGCGGCUCGAGCCCGGGUAAGUUGAAGUCGUCUGCAUGCCGCCGGGCGCCAUGCCUGCAGGUCGACUCUAGAAAACAUG,-6.06,-6.57,,-8.4,,< -1.9,
GGCUAGAACUAGUGGAUCCCCCGGCGCCCGGCGGCUCGAGCCCGGGUAAGUCGGAGUCGUCUGCAUGCCGCCGGGCGCCAUGCCUGCAGGUCGACUCUAGAAAACAUG,-5.93,-5.86,,< -7.04,,,
GGCUAGAACUAGUGGAUCCCCCGGCGCCCGGCGGCUCGAGCCCGGGUAAGAGGAAACUGUCUGCAUGCCGCCGGGCGCCAUGCCUGCAGGUCGACUCUAGAAAACAUG,-5.66,-5.55,,< -7.62,,-1.47,
GGCUAGAACUAGUGGAUCCCCCGGCGCCCGGCGGCUCGAGCCCGGGUAAGUUGCCGUAGUCUGCAUGCCGCCGGGCGCCAUGCCUGCAGGUCGACUCUAGAAAACAUG,-6.72,-5.42,,-7.04,,,
GGCUAGAACUAGUGGAUCCCCCGGCGCCCGGCGGCUCGAGCCCGGGUAAGGUUCAAAAGUCUGCAUGCCGCCGGGCGCCAUGCCUGCAGGUCGACUCUAGAAAACAUG,-3.51,-3.66,,,,-1.4,

# 3 neighbouring records already listed, quoted:
Sequence,binding signal (log2 enrichment (interaction score)) [1],binding signal (log2 enrichment (interaction score)) [2],binding signal (log2 enrichment (interaction score)) [3],binding signal (log2 enrichment (interaction score)) [4],binding signal (log2 enrichment (interaction score)) [5],binding signal (log2 enrichment (interaction score)) [6],binding signal (log2 enrichment (interaction score)) [7]
GGCUAGAACUAGUGGAUCCCCCGGCGCCCGGCGGCUCGAGCCCGGGUAAGUGUCAAAUGUCUGCAUGCCGCCGGGCGCCAUGCCUGCAGGUCGACUCUAGAAAACAUG,-5.5,-5.52,,-9.09,,,
GGCUAGAACUAGUGGAUCCCCCGGCGCCCGGCGGCUCGAGCCCGGGUAAGUUGAAGUCGUCUGCAUGCCGCCGGGCGCCAUGCCUGCAGGUCGACUCUAGAAAACAUG,-6.06,-6.57,,-8.4,,< -1.9,
GGCUAGAACUAGUGGAUCCCCCGGCGCCCGGCGGCUCGAGCCCGGGUAAGUCGGAGUCGUCUGCAUGCCGCCGGGCGCCAUGCCUGCAGGUCGACUCUAGAAAACAUG,-5.93,-5.86,,< -7.04,,,
